Test results as given in the supplement of paper PMC8007513.
This is one part of the list. Most values come without repeats; read them as rough.

Test system: Saccharomyces cerevisiae BY4743
Test: growth (OD600) relative to untreated control; higher = less growth inhibition
Conditions: compound concentration: 133 uM; 20 h
Description: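 NMCCC compounds (133 uM, no IPBC) tested alone against Saccharomyces cerevisiae BY4743 in YPD, 96-well plates, starting OD600 ~0.1. Growth was read as OD600 at 20 h and expressed as % of the untreated control. Single pass.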

Row | SMILES | growth [%]
1 | O=C1CCCCC1Sc1nnc(O)n1Cc1ccccc1 (stereo not drawn) | 93.2
2 | CCc1ccc(NC(=O)CN2C(=O)CSc3ccc(S(=O)(=O)N(C)C)cc32)cc1 | 111
3 | CCc1nnc(NC(=O)CC2(CC(=O)N3CCOCC3)CCCC2)s1 | 104
4 | CN(C)S(=O)(=O)c1cccc(CSc2ccc3c(c2)OCCCO3)c1 | 78.4
5 | CC(C)COC(=O)Nc1nnc(/C=C/c2ccccc2)s1 | 88.9
6 | CCCn1c(SCC(=O)Nc2ccc(C(N)=O)cc2)nc2ccc(C(F)(F)F)cc21 | 98.6
7 | COC1=CC=C(F)C=C1CN2\C=N/C3=C(C(=C(C)S3)C)C2=O | 98.7
8 | CCCC(=O)N(c1nc(C)c(C(C)=O)s1)C1CC1 | 98.4
9 | CCOC(=O)\C1=C(/C)NC(=O)NC1C2=C(C)SC(=C2)C (stereo not drawn) | 104
10 | O=C(CSc1ccc(-c2cccs2)nn1)NC1CCCCC1 | 91.1
11 | CC1(C)CC(NC(=O)CNC(=O)Cc2nnc(O)c3ccccc23)CC(C)(C)N1 | 108
12 | Cc1ccc(C(NS(=O)(=O)c2ccc(S(C)(=O)=O)cc2)c2cccs2)cc1 (stereo not drawn) | 87
13 | O=C(COC(=O)CCC(=O)c1ccc2c(c1)OCCO2)Nc1ccc(Cl)cc1C(F)(F)F | 86
14 | CCCOc1ccc(CN(C(=O)c2nc(SC)ncc2Cl)C2CCS(=O)(=O)C2)cc1 (stereo not drawn) | 101
15 | CC(C)C[C@H](NC(=O)N1CCc2ccccc21)C(=O)O | 90.3
16 | CC(Sc1ncnc2sccc12)C(=O)Nc1cccc(C#N)c1 (stereo not drawn) | 107
17 | CC(C)(C)c1cc(NC(=O)CSc2nnc(NCCc3cccs3)s2)on1 | 99.8
18 | Cc1cc(SCC(=O)OC(C)C(=O)c2ccc(NS(C)(=O)=O)cc2)nc2ccccc12 (stereo not drawn) | 108
19 | CC1Cc2cc(S(N)(=O)=O)ccc2N1Cc1cccc(C(F)(F)F)c1 (stereo not drawn) | 85.7
20 | CCCc1n[nH]c(SCC(=O)NC(C)c2ccc3c(c2)OCCO3)n1 (stereo not drawn) | 110
21 | CCCNC(=O)Cc1c(C)nc2cc(-c3ccccc3)nn2c1C | 102
22 | CCOC(=O)c1cc(CNC2(CN3CCOCC3)CCCC2)on1 | 108
23 | Cc1nc2nc(CCc3ccccc3)nn2c(C)c1Cl | 102

A second format for some results above:
Cc1ccc(C(NS(=O)(=O)c2ccc(S(C)(=O)=O)cc2)c2cccs2)cc1 (stereo not drawn)
  growth [%]: 87
O=C(COC(=O)CCC(=O)c1ccc2c(c1)OCCO2)Nc1ccc(Cl)cc1C(F)(F)F
  growth [%]: 86
